Measured values from patent publication US20040265932A1 (AbbVie / Abbott, published 2004).
No constants are given. Whether binding was seen depends on the method and setting. Some entries that bind do so weakly or less than the wild type. Where a sequence is shown, tags or fusion partners need not be part of it.

Sequences of proteins named here, by UniProt entry; tags and fusion partners are left off. A change or cut given only in a name is not applied to a line headed by its entry.
UniProt Q13296: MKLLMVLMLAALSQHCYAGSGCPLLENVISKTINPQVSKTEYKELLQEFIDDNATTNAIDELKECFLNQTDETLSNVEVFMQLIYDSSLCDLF

Assays:
[1] = molecular target: Mammaglobin M/H (myc/his tagged Mammaglobin, transient transfection of HEK293 cells) (human) (UniProt Q13296); experiment: gel filtration (Superose 12), single peak of 56 kD
[2] = molecular target: Mammaglobin M/H (myc/his tagged Mammaglobin, transient transfection of HEK293 cells) (human) (UniProt Q13296); experiment: anion exchange chromatography at pH 6.0 with anti-myc dot blot
[3] = molecular target: Mammaglobin M/H (myc/his tagged Mammaglobin, transient transfection of HEK293 cells) (human) (UniProt Q13296); experiment: Western blots, non-reducing against reducing; complex dissociated by beta-mercaptoethanol

Measured: binding

B1: BU101 polypeptide from breast cancer tissue extract (other)
chain: EFCPALVSELLDFFFISEPLFKLSLAKFDAPPEAVAAKLGVKRCTDQMSLQKRSLIAEVLVKILKKCSV
notes: native protein in tissue extract, about 7 kD reduced
binds: all assays above
